Literature values as cited in PMC12604490, “Dual immunomodulatory and antileishmanial potential of TLR7/8 agonists against Leishmania donovani” (Infection and Immunity, 2025).

System: Leishmania infantum
Design: method as in PMID 35111861
Conditions: read-out: IC50 against Leishmania infantum; cited from earlier work

## CN1CC[C@]23c4c5ccc(O)c4O[C@H]2[C@@H](O)C=C[C@H]3[C@H]1C5 [morphine]
  IC50: 102 ± 30 nM
